# According to PMC12670160, “A drug-repurposing screen of FDA- and EMA-approved drugs identifies two NF-κB inhibitors active against eumycetoma” (Journal of Antimicrobial Chemotherapy, 2025):
# Counter-ions that a name gives are not always drawn. Like-named read-outs stand apart in the source and are kept apart here. Among all 5,300 compounds or so, about 130 (2.5%) showed an effect of 50% or more. The list shows a part of the results. Numbered stars: 1 amine (or outer) side, 2 acyl side, 3 side chain; on linkers, the order of the positions; unused ones are H or OH. Bridge positions count the residues as written; N and C are the ends. Square brackets hold non-standard residues; d marks the D form. Peptide text beside a SMILES is read from it. I, II: the chains in the order shown. Actinocin(9to1) = Cc1c2oc3c(C)ccc(C(=O)[*:1])c3nc-2c(C(=O)[*:2])c(N)c1=O; NMeV = CN[C@H](C(=O)O)C(C)C; Sar = CNCC(=O)O
# Tested on: M. mycetomatis strain mm55
# Conditions: primary screen, metabolic activity vs growth control, 96 h, 2 µM, inhibitor
SMILES,% viability [%],% viability (Madurella mycetomatis metabolic activity at 2µM (%)) [%]
"FCc1ccc(OCCOc2ccc(Cl)cc2Cl)c(Cl)n1 [ONC0000095, cym50260]",81.52,–
"CC(C)(C)c1ccc2cc(C#N)c(C#N)cc2c1 [ONC0003604, brd9876]",97.5,–
"CC(C)Cc1ccc(C(C)C(=O)O)cc1 (stereo not shown) [ONC0000377, ibuprofen]",74.77,–
"COc1ccc(CN2CCN(C(c3ccc(F)cc3)c3ccc(F)cc3)CC2)c(OC)c1OC [ONC0004196, lomerizine hydrochloride]",80.31,–
"CC1(O)C(O)C(CO)OC1n1ccc(N)nc1=O (stereo not shown) [ONC0003575, nm107 2cmethylcytidine]",89.59,–
"CN(C(=O)c1c(O)c2ccccc2n(C)c1=O)c1ccccc1 [ONC0001699, roquinimex]",64.36,–
"C=C1NC[C@H](O)[C@@H](C(=O)O)N1 [ONC0005453, 5hydroxyectoine]",82.42,–
"COCCc1ccc(OCC(O)CNC(C)C)cc1 (stereo not shown) [ONC0000497, metoprolol tartrate]",61.5,–
"CCN1CCN(Cc2ccc(Nc3ncc(F)c(-c4cc(F)c5nc(C)n(C(C)C)c5c4)n3)nc2)CC1 [ONC0004445, abemaciclib ly2835219]",113.8,–
"Nc1nc2[nH]cc(CCc3ccc(C(=O)N[C@@H](CCC(=O)O)C(=O)O)cc3)c2c(=O)[nH]1 [ONC0000505, pemetrexed]",97.55,–
"COc1ccc2c(c1)C(C(=O)N(Cc1ccc(N(C)C)cc1)c1ccc(C(C)C)cc1)CCC2 (stereo not shown) [ONC0001356, w54011]",87.64,–
"COc1ccc(C(=O)c2ccccc2O)c(O)c1 [ONC0000693, dioxybenzone]",133.1,–
"Cc1ccc(OCCSc2ncccn2)c(Br)c1 [ONC0003579, zln024]",91.48,–
"C[C@@H]1COCCN1c1cc(=O)n2c(n1)N(Cc1cncc(Cl)c1)[C@H](C(F)(F)F)CC2 [ONC0002229, sar405]",105.5,–
"COc1ccc(Cl)cc1[C@]1(F)C(=O)Nc2cc(C(F)(F)F)ccc21 [ONC0000893, flindokalner]",76.01,–
"CC(=O)Oc1ccccc1C(=O)Oc1cccc(CO[N+](=O)[O-])c1 [ONC0003513, noasa]",61.82,–
"C[C@]12CCC(=O)C=C1CCC1C2[C@@H](O)C[C@@]2(C)C1CC[C@]2(O)C(=O)COC(=O)CCC(=O)O (stereo partly shown) [ONC0000363, hydrocortisone hemisuccinate]",75.53,–
"O=C(OCCOCCO)c1ccccc1Nc1cccc(C(F)(F)F)c1 [ONC0002216, etofenamate]",64.05,–
"Cc1cc(C)c2c(N)c(C(=O)NCc3ccc(Cl)cc3)sc2n1 [ONC0002558, vu10010]",70.5,–
"COc1ccc2cccc(N3CCN(CCNC(=O)c4ccc(F)cc4)CC3)c2c1 [ONC0002715, s14506]",83.12,–
"Fc1ccc2c(CCNCc3cccc(OCC(F)(F)C(F)F)c3)c[nH]c2c1 [ONC0001771, idalopirdine hydrochloride]",93.48,–

SMILES,% viability [%],% viability (Madurella mycetomatis metabolic activity at 2µM (%)) [%]
"O=C(c1cncc(Br)c1)N1CCC(N2CCCC2)CC1 [ONC0005156, unc669]",69.77,–
"O=C(Nc1ccc([N+](=O)[O-])cc1O)Nc1ccccc1Br [ONC0001308, sb225002]",58.94,–
"Cc1cnc(C(=O)O)c[n+]1[O-] [ONC0004232, acipimox]",58.97,–
"CC(=O)Nc1cccc(O)c1 [ONC0003258, metacetamol]",53.98,–
"O=c1c(O)c(-c2ccc(O)c(O)c2)oc2cc(O)cc(O)c12 [ONC0001264, quercetin]",90.95,–
"Cc1cc(S(=O)(=O)O)c2c(C)ccc(C(C)C)cc1-2 [ONC0003383, sodium gualenate]",92.53,–
"C[N+](C)(C)CCOP(=O)([O-])OC[C@H](O)CO [ONC0001883, snglycero3phosphocholine]",65.85,–
"O=[N+]([O-])c1ccc2nc(COCc3nc4ccc([N+](=O)[O-])cc4[nH]3)[nH]c2c1 [ONC0002515, vu591]",61.47,–
CN=C(N)NC(=O)Nc1c(C)cccc1C [ONC0003862],68.76,–
"CC/C(=C(\c1ccccc1)c1ccc(OCCN(C)C)cc1)c1ccccc1 [ONC0000595, tamoxifen citrate]",106.5,–
"CCc1oc2ccccc2c1C(=O)c1cc(Br)c(O)c(Br)c1 [ONC0004022, benzbromarone]",98.48,–
"Cn1cc(-c2ccc(S(=O)(=O)n3ccc(/C=C/C(=O)Nc4ccccc4N)c3)cc2)cn1 [ONC0005104, 4sc202]",74.64,–
"c1ccc(-c2n[nH]c3c2oc2ccccc23)cc1 [ONC0001593, gtp14564]",74.59,–
"NC(=O)C1=CN([C@@H]2O[C@H](COP(=O)(O)OP(=O)(O)OC[C@H]3O[C@@H](n4cnc5c(N)ncnc54)[C@H](O)[C@@H]3O)[C@@H](O)[C@H]2O)C=CC1 [ONC0002947, coenzymei]",72.84,–
"Cc1c2oc3c(C)ccc(C(=O)N[C@@H]4C(=O)N[C@H](C(C)C)C(=O)N5CCC[C@H]5C(=O)N(C)CC(=O)N(C)[C@@H](C(C)C)C(=O)O[C@@H]4C)c3nc-2c(C(=O)N[C@@H]2C(=O)N[C@H](C(C)C)C(=O)N3CCC[C@H]3C(=O)N(C)CC(=O)N(C)[C@@H](C(C)C)C(=O)O[C@@H]2C)c(N)c1=O [ONC0002258, actinomycin d] (I: T[dV]P[Sar][NMeV] / II: T[dV]P[Sar][NMeV]; ester I:1-I:C, II:1-II:C; linker I:N-II:N via Actinocin(9to1))",–,100.3
"CC(C)[C@@H](CS(=O)(=O)C(C)C)N1C(=O)[C@@](C)(CC(=O)O)C[C@H](c2cccc(Cl)c2)[C@H]1c1ccc(Cl)cc1 [ONC0000969, amg 232]",85.4,–
"NCc1ccc(S(N)(=O)=O)cc1 [ONC0000477, mafenide hydrochloride]",60.8,–
"CC[N+](CC)(CC)CCOc1cccc(OCC[N+](CC)(CC)CC)c1OCC[N+](CC)(CC)CC [ONC0000433, gallamine triethiodide]",90.82,–
"CC(C)(C)NCC(O)c1cc(O)cc(O)c1 (stereo not shown) [ONC0000606, terbutaline hemisulfate]",93.54,–
"NS(=O)(=O)c1cc2c(cc1Cl)NC(CC1CCCC1)NS2(=O)=O (stereo not shown) [ONC0002932, cyclopenthiazide]",58.19,–
"CN(C)CCCCC(=O)Nc1ccc(NC(=S)NC(=O)c2ccc(C(C)(C)C)cc2)cc1 [ONC0004562, tenovin6]",74.44,–

# Sorted by heavy-atom count (largest number first): part of the list above
SMILES,% viability [%],% viability (Madurella mycetomatis metabolic activity at 2µM (%)) [%]
"CN(C)CCCCC(=O)Nc1ccc(NC(=S)NC(=O)c2ccc(C(C)(C)C)cc2)cc1 [ONC0004562, tenovin6]",74.44,–
"CC/C(=C(\c1ccccc1)c1ccc(OCCN(C)C)cc1)c1ccccc1 [ONC0000595, tamoxifen citrate]",106.5,–
"NS(=O)(=O)c1cc2c(cc1Cl)NC(CC1CCCC1)NS2(=O)=O (stereo not shown) [ONC0002932, cyclopenthiazide]",58.19,–

# Additional entries follow:

SMILES,% viability [%],% viability (Madurella mycetomatis metabolic activity at 2µM (%)) [%]
"C=C(c1ccc(C(=O)O)cc1)c1cc2c(cc1C)C(C)(C)CCC2(C)C [ONC0004806, bexarotene]",105.3,–
"COc1cc2ncnc(Nc3ccc(F)c(Cl)c3)c2cc1OCCCN1CCOCC1 [ONC0001398, gefitinib]",84.81,–
"CCOc1ccc(-c2ccc(Cn3c(CC(C)(C)C(=O)O)c(SC(C)(C)C)c4cc(OCc5ccc(C)cn5)ccc43)cc2)cn1 [ONC0002064, fiboflapon sodium]",68.44,–
"CN1CCN(c2nc(C3=C(c4c[nH]c5ccccc45)C(=O)NC3=O)c3ccccc3n2)CC1 [ONC0005088, sotrastaurin aeb071]",54.81,–
"c1ccc(C2CC2)c(OCC2=NCCN2)c1 [ONC0000039, cirazoline]",90.34,–
"CC(C(=O)O)c1ccc(C(=O)c2cccs2)cc1 (stereo not shown) [ONC0005011, suprofen profenal]",82.43,–
"CCOC(=O)CN1CCN(C(=O)/C=C/c2cc(OC)c(OC)c(OC)c2)CC1 [ONC0005388, cinepazet]",102.3,–
"[O-][S+](c1ccccc1)c1ccc2nnnn2n1 (stereo not shown) [ONC0001706, ro1069920]",85.95,–
"CCOc1ccc(NC(C)=O)cc1 [ONC0003348, phenacetin]",70.12,–
"CN1CCC[C@@H]1CCO[C@](C)(c1ccccc1)c1ccc(Cl)cc1 [ONC0000347, clemastine fumarate]",104.8,–
CC[C@@H]([C@H](C)O)n1ncn(-c2ccc(N3CCN(c4ccc(OC[C@@H]5CO[C@@](Cn6cncn6)(c6ccc(F)cc6F)C5)cc4)CC3)cc2)c1=O [Posaconazole],0.7626,–
"C(#Cc1nc2ncccc2nc1OCCN1CCCC1)c1ccccc1 [ONC0002542, gk921]",70.43,–
"NC(=O)[C@H]1CCS[C@@H]2C[C@]3(CCCN3C(=O)Cc3ccc(NC(=O)COc4ccc(Cl)cc4Cl)cc3)C(=O)N12 [ONC0001082, st 2825]",47.43,–
"CN[C@@H](C)C(=O)N[C@H](C(=O)N1CCC[C@H]1C(=O)Nc1sc(-c2ncco2)nc1-c1ccccc1)C1CCCCC1 [ONC0002073, cudc427]",73.98,–
"O=C(O)c1ccccc1 [ONC0003100, benzoic acid]",90.48,–
"CCN1CCC[C@H]1CNC(=O)c1c(O)c(Cl)cc(Cl)c1OC [ONC0001688, raclopride]",65.21,–
"O=C(O)c1cccnc1C(=O)O [ONC0003619, quinolinicacid]",57.36,–
"CCn1c(=O)/c(=C2\Sc3ccccc3N2C)s/c1=C\c1cccc[n+]1CC [ONC0004159, mkt077]",98.24,–
"COC(=O)[C@]12CCC(C)(C)C[C@H]1[C@H]1C(=O)C=C3[C@@]4(C)C=C(C#N)C(=O)C(C)(C)[C@@H]4CC[C@@]3(C)[C@]1(C)CC2 [ONC0004385, bardoxolone methyl]",103.2,–
